Here are results for three molecules from article PMC7176688.

Amino acid sequences for entries named in this document (tags omitted). A change or cut given only in a name is not applied to a line headed by its entry.
UniProt P49674: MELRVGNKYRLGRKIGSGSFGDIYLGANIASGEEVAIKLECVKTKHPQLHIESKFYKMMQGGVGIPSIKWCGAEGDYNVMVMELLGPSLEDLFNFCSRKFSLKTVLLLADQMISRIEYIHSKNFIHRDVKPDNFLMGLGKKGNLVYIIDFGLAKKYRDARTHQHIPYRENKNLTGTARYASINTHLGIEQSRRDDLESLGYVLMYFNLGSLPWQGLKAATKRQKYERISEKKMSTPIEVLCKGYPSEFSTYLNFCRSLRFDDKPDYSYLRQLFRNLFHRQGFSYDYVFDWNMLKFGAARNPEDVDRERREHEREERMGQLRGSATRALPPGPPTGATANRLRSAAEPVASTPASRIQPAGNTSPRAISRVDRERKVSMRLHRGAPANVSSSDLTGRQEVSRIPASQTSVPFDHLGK
UniProt P48730: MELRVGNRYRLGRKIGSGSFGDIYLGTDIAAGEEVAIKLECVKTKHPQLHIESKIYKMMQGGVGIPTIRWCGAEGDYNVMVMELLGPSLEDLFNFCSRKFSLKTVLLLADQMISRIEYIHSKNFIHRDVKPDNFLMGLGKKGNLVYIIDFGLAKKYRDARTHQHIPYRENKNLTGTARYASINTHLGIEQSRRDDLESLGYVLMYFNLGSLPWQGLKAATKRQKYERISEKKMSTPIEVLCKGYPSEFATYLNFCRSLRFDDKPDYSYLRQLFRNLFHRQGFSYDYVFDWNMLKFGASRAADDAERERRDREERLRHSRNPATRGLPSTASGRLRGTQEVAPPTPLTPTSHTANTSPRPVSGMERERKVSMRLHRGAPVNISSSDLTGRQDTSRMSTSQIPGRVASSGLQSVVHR
UniProt Q99996: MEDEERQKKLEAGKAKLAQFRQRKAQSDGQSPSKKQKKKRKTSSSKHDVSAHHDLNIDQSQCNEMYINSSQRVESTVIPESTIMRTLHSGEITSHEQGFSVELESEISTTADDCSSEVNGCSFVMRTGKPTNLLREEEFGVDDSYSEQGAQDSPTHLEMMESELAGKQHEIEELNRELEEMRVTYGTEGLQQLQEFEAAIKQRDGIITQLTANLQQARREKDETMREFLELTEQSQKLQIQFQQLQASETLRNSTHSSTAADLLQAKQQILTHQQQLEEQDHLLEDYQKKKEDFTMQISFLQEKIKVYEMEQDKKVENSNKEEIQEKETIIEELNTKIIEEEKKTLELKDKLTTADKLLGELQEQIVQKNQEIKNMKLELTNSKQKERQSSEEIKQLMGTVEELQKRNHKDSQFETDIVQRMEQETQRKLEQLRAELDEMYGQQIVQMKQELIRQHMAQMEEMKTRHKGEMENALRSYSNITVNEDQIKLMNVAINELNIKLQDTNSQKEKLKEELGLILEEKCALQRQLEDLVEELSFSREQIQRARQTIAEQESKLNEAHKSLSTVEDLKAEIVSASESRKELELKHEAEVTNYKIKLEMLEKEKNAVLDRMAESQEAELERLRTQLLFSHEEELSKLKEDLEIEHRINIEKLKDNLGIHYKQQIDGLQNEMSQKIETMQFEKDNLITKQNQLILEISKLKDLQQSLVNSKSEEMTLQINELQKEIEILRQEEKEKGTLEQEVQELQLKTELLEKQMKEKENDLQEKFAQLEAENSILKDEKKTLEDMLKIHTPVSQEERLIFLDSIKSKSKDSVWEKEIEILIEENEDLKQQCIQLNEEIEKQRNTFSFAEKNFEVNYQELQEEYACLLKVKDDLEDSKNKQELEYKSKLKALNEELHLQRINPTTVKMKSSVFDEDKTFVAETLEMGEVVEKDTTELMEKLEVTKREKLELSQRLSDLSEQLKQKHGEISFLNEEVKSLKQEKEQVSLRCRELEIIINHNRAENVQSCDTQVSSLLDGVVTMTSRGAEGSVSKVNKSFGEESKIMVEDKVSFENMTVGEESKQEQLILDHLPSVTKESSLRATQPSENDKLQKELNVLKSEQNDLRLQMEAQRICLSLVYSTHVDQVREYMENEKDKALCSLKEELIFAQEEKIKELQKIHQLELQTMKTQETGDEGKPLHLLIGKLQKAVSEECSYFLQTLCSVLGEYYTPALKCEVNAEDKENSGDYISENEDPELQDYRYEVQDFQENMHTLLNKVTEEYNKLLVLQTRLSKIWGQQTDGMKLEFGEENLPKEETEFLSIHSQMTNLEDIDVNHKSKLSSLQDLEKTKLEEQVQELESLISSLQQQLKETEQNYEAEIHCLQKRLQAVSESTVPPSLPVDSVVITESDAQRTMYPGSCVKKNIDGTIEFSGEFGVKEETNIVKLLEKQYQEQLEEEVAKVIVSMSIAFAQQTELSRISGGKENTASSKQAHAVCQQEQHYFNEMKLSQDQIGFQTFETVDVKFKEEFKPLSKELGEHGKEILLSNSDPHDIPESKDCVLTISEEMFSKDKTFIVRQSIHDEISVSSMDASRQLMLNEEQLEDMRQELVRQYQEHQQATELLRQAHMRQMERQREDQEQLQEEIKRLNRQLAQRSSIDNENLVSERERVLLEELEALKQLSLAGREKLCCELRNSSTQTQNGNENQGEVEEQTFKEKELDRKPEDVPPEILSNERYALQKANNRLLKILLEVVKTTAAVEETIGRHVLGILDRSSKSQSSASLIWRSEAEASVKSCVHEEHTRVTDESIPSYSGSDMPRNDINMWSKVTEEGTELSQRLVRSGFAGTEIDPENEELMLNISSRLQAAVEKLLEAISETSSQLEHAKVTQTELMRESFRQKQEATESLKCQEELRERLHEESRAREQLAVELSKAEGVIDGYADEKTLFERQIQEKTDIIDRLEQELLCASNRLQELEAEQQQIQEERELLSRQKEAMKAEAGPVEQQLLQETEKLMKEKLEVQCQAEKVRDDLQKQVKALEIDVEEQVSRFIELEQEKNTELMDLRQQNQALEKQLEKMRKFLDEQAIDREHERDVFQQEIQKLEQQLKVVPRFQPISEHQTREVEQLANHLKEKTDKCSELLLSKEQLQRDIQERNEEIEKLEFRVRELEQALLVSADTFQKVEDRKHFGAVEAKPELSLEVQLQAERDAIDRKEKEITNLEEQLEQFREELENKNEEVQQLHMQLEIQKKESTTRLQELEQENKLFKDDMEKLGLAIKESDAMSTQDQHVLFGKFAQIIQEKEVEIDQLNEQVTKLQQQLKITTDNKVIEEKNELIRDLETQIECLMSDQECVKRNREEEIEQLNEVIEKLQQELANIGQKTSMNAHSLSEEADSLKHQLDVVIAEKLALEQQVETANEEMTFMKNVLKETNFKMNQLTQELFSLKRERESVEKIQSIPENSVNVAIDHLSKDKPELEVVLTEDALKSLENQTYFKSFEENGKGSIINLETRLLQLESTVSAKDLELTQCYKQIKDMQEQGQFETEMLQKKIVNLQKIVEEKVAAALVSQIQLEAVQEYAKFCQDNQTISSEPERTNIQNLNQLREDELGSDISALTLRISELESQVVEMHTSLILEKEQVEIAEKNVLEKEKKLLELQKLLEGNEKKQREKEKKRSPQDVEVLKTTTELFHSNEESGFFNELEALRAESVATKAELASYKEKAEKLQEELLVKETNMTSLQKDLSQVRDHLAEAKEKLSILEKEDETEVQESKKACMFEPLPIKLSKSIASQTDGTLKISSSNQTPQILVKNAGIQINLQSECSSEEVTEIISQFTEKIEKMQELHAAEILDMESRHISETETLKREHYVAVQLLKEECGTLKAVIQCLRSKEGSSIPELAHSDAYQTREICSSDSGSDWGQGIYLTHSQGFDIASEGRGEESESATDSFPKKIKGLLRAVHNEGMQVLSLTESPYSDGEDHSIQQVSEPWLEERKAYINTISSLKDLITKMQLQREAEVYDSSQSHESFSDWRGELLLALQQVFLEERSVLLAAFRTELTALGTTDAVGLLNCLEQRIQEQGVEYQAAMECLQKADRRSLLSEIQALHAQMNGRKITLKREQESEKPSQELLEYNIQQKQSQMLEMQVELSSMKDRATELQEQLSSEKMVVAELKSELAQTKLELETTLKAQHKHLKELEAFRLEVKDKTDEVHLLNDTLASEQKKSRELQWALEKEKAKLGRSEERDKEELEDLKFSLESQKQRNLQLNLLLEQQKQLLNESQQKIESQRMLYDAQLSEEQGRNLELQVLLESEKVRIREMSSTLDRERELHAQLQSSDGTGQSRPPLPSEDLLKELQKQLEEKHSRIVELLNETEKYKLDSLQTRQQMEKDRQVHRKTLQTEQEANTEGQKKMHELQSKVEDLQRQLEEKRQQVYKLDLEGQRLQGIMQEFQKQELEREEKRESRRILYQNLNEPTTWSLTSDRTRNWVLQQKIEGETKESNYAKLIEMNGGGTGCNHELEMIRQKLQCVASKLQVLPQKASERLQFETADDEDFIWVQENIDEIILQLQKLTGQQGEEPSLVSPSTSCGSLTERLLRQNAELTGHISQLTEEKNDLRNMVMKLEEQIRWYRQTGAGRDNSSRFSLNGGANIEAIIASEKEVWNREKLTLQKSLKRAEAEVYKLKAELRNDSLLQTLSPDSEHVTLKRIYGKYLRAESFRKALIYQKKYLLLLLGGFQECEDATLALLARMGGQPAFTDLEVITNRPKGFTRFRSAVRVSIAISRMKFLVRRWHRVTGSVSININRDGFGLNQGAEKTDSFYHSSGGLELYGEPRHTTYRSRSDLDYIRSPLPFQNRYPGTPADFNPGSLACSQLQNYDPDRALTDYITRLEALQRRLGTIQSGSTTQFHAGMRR
UniProt O15534: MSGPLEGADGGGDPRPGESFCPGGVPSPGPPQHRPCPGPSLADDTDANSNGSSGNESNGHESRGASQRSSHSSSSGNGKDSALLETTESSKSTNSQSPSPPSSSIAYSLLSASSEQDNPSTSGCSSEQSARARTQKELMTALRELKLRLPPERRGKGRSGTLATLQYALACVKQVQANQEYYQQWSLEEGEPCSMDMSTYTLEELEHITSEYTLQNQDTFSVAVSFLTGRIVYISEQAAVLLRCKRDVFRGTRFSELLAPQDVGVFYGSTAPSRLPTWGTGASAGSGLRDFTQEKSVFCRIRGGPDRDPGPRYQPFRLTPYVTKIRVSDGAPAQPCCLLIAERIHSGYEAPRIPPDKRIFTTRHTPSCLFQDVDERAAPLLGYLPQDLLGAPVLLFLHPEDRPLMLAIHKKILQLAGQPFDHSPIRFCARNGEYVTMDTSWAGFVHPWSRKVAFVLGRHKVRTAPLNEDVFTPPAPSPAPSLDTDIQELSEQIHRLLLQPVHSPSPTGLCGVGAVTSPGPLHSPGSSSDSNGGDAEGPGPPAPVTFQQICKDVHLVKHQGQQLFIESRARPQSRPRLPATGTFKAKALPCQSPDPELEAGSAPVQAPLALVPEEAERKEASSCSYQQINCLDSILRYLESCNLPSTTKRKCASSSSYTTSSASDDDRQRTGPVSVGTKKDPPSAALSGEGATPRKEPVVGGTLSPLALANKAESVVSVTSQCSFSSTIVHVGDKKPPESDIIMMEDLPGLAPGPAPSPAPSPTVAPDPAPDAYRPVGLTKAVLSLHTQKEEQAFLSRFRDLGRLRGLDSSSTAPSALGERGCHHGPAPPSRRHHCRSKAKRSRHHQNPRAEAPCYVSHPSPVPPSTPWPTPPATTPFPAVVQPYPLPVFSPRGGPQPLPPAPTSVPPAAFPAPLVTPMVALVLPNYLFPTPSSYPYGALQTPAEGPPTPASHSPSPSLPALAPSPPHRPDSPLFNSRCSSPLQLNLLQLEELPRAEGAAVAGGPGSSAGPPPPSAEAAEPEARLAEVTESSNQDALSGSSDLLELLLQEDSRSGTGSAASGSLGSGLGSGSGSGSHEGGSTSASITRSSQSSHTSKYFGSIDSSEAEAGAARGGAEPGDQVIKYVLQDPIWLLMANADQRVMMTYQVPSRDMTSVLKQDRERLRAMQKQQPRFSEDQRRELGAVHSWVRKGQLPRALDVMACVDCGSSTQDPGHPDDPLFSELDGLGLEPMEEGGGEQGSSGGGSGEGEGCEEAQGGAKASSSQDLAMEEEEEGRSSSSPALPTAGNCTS

Where two headings read alike, the source gives them in different places. These are yes or no findings as the source states them, for the method shown. Binding seen in cells or lysates may run through a third protein. Here binding means that the protein was enriched with, or labelled near, the bait; the list need not be complete. For some assays here: No binding means not detected with the bait.

Assay in all cases: affinity purification with mass spectrometry; CK1δ-VM or CK1ε-VM purified in duplicate from lysates of asynchronous or mitotic HEK293 cells on anti-Flag magnetic beads, then streptavidin beads (0.5% Triton X-100 lysis buffer, washes with 250 mM NaCl); LC-MS/MS; VM alone as control
For assay [1], the target named is CK1ε-VM (casein kinase 1 epsilon, tagged at its endogenous locus with Venus-MAP) (human) (UniProt P49674).
The target of assay [2] is CK1δ-VM (casein kinase 1 delta, tagged at its endogenous locus with Venus-MAP) (human) (UniProt P48730).
Assay [3] has as its target CK1ε-VM (casein kinase 1 epsilon, tagged at its endogenous locus with Venus-MAP) (human) (UniProt P49674). This is another data set of the same source.

Turning to “AKAP450, endogenous in HEK293 (from UniProt Q99996 1-3907)”, the binding entry in assay [1] and in assay [2] was “no binding” each time.
Turning to “Period protein 1, endogenous in HEK293 (from UniProt O15534 1-1290)”, the binding entry in assay [1] and in assay [2] was “binds” each time.

B1: GTPase-activating protein and VPS9 domain-containing protein 1 (GAPVD1), endogenous in HEK293 (protein, UniProt Q14C86 1-1478)
chain: MVKLDIHTLAHHLKQERLYVNSEKQLIQRLNADVLKTAEKLYRTAWIAKQQRINLDRLIITSAEASPAECCQHAKILEDTQFVDGYKQLGFQETAYGEFLSRLRENPRLIASSLVAGEKLNQENTQSVIYTVFTSLYGNCIMQEDESYLLQVLRYLIEFELKESDNPRRLLRRGTCAFSILFKLFSEGLFSAKLFLTATLHEPIMQLLVEDEDHLETDPNKLIERFSPSQQEKLFGEKGSDRFRQKVQEMVESNEAKLVALVNKFIGYLKQNTYCFPHSLRWIVSQMYKTLSCVDRLEVGEVRAMCTDLLLACFICPAVVNPEQYGIISDAPINEVARFNLMQVGRLLQQLAMTGSEEGDPRTKSSLGKFDKSCVAAFLDVVIGGRAVETPPLSSVNLLEGLSRTVVYITYSQLITLVNFMKSVMSGDQLREDRMALDNLLANLPPAKPGKSSSLEMTPYNTPQLSPATTPANKKNRLPIATRSRSRTNMLMDLHMDHEGSSQETIQEVQPEEVLVISLGTGPQLTPGMMSENEVLNMQLSDGGQGDVPVDENKLHGKPDKTLRFSLCSDNLEGISEGPSNRSNSVSSLDLEGESVSELGAGPSGSNGVEALQLLEHEQATTQDNLDDKLRKFEIRDMMGLTDDRDISETVSETWSTDVLGSDFDPNIDEDRLQEIAGAAAENMLGSLLCLPGSGSVLLDPCTGSTISETTSEAWSVEVLPSDSEAPDLKQEERLQELESCSGLGSTSDDTDVREVSSRPSTPGLSVVSGISATSEDIPNKIEDLRSECSSDFGGKDSVTSPDMDEITHGAHQLTSPPSQSESLLAMFDPLSSHEGASAVVRPKVHYARPSHPPPDPPILEGAVGGNEARLPNFGSHVLTPAEMEAFKQRHSYPERLVRSRSSDIVSSVRRPMSDPSWNRRPGNEERELPPAAAIGATSLVAAPHSSSSSPSKDSSRGETEERKDSDDEKSDRNRPWWRKRFVSAMPKAPIPFRKKEKQEKDKDDLGPDRFSTLTDDPSPRLSAQAQVAEDILDKYRNAIKRTSPSDGAMANYESTGDNHDRDLSSKLLYHSDKEVMGDGESAHDSPRDEALQNISADDLPDSASQAAHPQDSAFSYRDAKKKLRLALCSADSVAFPVLTHSTRNGLPDHTDPEDNEIVCFLKVQIAEAINLQDKNLMAQLQETMRCVCRFDNRTCRKLLASIAEDYRKRAPYIAYLTRCRQGLQTTQAHLERLLQRVLRDKEVANRYFTTVCVRLLLESKEKKIREFIQDFQKLTAADDKTAQVEDFLQFLYGAMAQDVIWQNASEEQLQDAQLAIERSVMNRIFKLAFYPNQDGDILRDQVLHEHIQRLSKVVTANHRALQIPEVYLREAPWPSAQSEIRTISAYKTPRDKVQCILRMCSTIMNLLSLANEDSVPGADDFVPVLVFVLIKANPPCLLSTVQYISSFYASCLSGEESYWWMQFTAAVEFIKTIDDRK
On to B1, for which the binding entry in assay [3] is on record as “binds”.
